Assay results: the supplement of paper PMC12823440, “Inhibitors supercharge kinase turnover through native proteolytic circuits” (Nature, 2025)
Structures can show the parent of a compound that is named as a salt. Some of the results follow. The calls rarely recur for the same compound in another form.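 Kinases, fused to nanoluciferase, were expressed in K562 cells; luminescence was measured every 4 h from 2 to 18 h as percent of control (DMSO = 100%, positive control = 0%). A time point is decreased if signal falls significantly (2 sigma). Hits were called by the authors by a rule that is not shown; the count of time points alone does not decide it.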

Target: RAF1 (UniProt P04049)
Assay: kinase-Nluc reporter destabilization hit call (1 = scored as downregulated) (binary); higher = compound decreases kinase abundance
Conditions: K562; 2-18 h

kinase-Nluc reporter destabilization hit call, inactive:
O=C(CSC1=NCCN1)NC1CCCCCC1 [ICCB-19 (hydrochloride)] (2.5 µM) 0, CCCS(=O)(=O)Nc1ccc(F)c(C(=O)c2c[nH]c3ncc(-c4ccc(Cl)cc4)cc23)c1F [Vemurafenib] (10 µM) 0, Cc1ccc(OCCSc2ncccn2)c(Br)c1 [ZLN024 (hydrochloride)] (10 µM) 0, Nc1ncnc2c1c(-c1ccc(Oc3ccccc3)cc1)nn2C1CCCC1 (2.5 µM) 0, COc1ncc(Cl)cc1S(=O)(=O)Nc1ccc(F)c(C#Cc2cnc(N)nc2)c1F (2.5 µM) 0, Cc1ccc(CNc2ncnc3ccc(-c4ccc(CO)o4)cc23)o1 (10 µM) 0, NC(=O)c1nnc(N[C@@H]2CCCC[C@@H]2N)nc1Nc1cccc2cc[nH]c12 (10 µM) 0, CNc1nc(Nc2ccc(C(=O)N3CCOCC3)cc2OC)nc2[nH]cc(Cl)c12 (2.5 µM) 0, CCNc1nc(Nc2cc(F)c(C(=O)N3CCOCC3)cc2OC)ncc1C(F)(F)F [GNE-7915 (tosylate)] (10 µM) 0, CCN1CCN(Cc2ccc(Nc3ncc(F)c(-c4cc(F)c5nc(C)n(C(C)C)c5c4)n3)nc2)CC1 [Abemaciclib] (2 µM) 0, COCCNc1nc2ccc(C#CC3(O)CCCCC3)cc2n1-c1ccnc(N)n1 (10 µM) 0, OCCn1cc(-c2ccc3c(c2)CC/C3=N\O)c(-c2ccncc2)n1 (10 µM) 0, O=C1N[C@@H](Cc2c[nH]c3ccccc23)C(=O)N2CCC[C@@H]12 [Brevianamide F] (10 µM) 0, Cn1nccc1Nc1nccc(-c2ccn([C@H](CO)c3ccc(Cl)c(F)c3)c(=O)c2)n1 [Ravoxertinib] (10 µM) 0, O=C(NCCN1CCOCC1)c1cc2c(Oc3ccc(NC(=O)C4(C(=O)Nc5ccc(F)cc5)CC4)cc3)ccnc2[nH]1 [Tyrosine kinase inhibitor] (10 µM) 0, COc1cc2c(N3CCN(C(=O)Nc4ccc(OC(C)C)cc4)CC3)ncnc2cc1OCCCN1CCCCC1 [Tandutinib (hydrochloride)] (10 µM) 0, COc1cc(/C=C/C(=O)NCC(O)c2ccc(O)cc2)ccc1O (stereo unspecified) [N-Feruloyloctopamine] (2.5 µM) 0, COc1cc2nccc(Oc3ccc(NC(=O)NC4CC4)c(Cl)c3)c2cc1C(N)=O [Lenvatinib (mesylate)] (10 µM) 0, CN1CCN(c2cccc(Nc3nc4c(-c5ccc(S(C)(=O)=O)cc5)cccn4n3)c2)CC1 (10 µM) 0, C=C(CC[C@@H](C(=O)O)[C@H]1[C@H](O)C[C@@]2(C)C3=C(CC[C@]12C)[C@@]1(C)CC[C@H](OC(C)=O)C(C)(C)[C@@H]1CC3)C(C)C [Pachymic acid] (10 µM) 0, O=c1[nH]c(=O)n([C@@H]2O[C@H](CO)[C@@H](O)[C@@H]2O)cc1/C=C/Br [Sorivudine] (10 µM) 0, NC(=O)c1ccc(-c2nc(-c3ccc4c(c3)OCCO4)c(-c3ccccn3)[nH]2)cc1 (10 µM) 0, CC#CC(=O)Nc1ccc2ncnc(Nc3cccc(Br)c3)c2c1 (10 µM) 0, CCc1c(C(=O)NNC(=O)C(O)c2cc(F)cc(F)c2)ccc(O)c1C (stereo unspecified) (10 µM) 0, CC(=O)c1c(C)cc2cccc(O)c2c1O [Nepodin] (10 µM) 0, Cc1c(-c2c(F)cc(C(N)=O)c3[nH]c4c(c23)CC[C@H](C(C)(C)O)C4)cccc1-n1c(=O)c2cccc(F)c2n(C)c1=O (2.5 µM) 0, CCc1cc2c(cc1N1CCC(N3CCOCC3)CC1)C(C)(C)c1[nH]c3cc(C#N)ccc3c1C2=O [Alectinib] (10 µM) 0, FC(F)c1nc2ccccc2n1-c1nc(N2CCOCC2)nc(N2CCOCC2)n1 (2 µM) 0, FC(F)(c1ccc2ncccc2c1)c1nnc2ccc(-c3ccncc3)nn12 (10 µM) 0, Cn1cc(-c2cnn3c(N)c(Br)c([C@@H]4CCCNC4)nc23)cn1 (2.5 µM) 0, C[C@@H]1COCCN1c1cc(C2([S@@](C)(=N)=O)CC2)nc(-c2ccnc3[nH]ccc23)n1 [(S)-Ceralasertib] (10 µM) 0
